Assay results: the supplement of paper PMC10849652
The other results are listed elsewhere or left out.

Chains of the proteins cited; added tags and fusions are not shown. Lines headed by an entry give the natural chain unless they say otherwise; changes in a name come on top.
UniProt O60732: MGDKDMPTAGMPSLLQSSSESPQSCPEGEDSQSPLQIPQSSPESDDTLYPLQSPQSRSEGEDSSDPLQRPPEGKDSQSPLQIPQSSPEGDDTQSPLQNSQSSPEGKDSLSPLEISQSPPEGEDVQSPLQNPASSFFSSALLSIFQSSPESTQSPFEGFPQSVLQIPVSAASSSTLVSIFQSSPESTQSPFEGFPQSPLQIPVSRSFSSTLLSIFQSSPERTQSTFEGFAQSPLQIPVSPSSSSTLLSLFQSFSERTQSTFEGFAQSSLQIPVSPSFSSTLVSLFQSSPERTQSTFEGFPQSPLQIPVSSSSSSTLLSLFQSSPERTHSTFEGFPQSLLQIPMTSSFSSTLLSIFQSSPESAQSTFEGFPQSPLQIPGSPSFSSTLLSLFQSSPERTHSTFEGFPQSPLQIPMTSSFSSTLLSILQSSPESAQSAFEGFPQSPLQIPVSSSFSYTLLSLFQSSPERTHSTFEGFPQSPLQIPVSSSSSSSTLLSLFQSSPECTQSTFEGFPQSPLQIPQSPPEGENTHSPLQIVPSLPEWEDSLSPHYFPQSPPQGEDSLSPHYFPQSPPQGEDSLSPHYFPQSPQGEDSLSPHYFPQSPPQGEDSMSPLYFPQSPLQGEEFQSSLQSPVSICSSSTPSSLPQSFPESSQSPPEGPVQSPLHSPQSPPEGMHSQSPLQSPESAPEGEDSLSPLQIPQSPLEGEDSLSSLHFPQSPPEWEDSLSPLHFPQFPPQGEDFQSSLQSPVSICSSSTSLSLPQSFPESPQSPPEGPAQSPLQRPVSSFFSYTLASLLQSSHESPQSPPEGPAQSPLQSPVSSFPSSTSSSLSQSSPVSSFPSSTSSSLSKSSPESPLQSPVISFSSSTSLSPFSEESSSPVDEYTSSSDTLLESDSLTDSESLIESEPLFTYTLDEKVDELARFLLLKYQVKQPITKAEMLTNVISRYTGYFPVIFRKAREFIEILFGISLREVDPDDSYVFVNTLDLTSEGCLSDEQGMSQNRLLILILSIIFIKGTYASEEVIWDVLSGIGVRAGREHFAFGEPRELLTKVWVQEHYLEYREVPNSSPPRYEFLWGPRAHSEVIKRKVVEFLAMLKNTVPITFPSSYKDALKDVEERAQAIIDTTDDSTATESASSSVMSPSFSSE
UniProt Q9NZL9, whole entry, looked up: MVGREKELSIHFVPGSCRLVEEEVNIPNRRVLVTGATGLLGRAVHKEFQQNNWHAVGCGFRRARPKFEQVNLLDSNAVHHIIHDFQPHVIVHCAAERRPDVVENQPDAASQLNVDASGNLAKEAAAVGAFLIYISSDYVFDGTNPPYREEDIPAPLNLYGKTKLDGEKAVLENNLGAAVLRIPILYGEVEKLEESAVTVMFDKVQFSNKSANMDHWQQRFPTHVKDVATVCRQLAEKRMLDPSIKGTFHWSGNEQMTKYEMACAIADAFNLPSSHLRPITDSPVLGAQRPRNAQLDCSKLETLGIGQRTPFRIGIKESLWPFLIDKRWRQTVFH
UniProt P46734: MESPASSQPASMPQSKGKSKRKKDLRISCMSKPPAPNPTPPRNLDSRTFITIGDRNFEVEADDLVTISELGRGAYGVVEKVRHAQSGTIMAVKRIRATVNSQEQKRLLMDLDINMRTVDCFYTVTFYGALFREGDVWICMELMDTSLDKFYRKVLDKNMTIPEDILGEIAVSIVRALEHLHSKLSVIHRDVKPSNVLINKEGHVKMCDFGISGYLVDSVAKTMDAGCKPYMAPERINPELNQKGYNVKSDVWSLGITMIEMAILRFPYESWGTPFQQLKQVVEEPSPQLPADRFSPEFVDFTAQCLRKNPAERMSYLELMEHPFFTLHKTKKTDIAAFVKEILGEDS
UniProt Q96GA3: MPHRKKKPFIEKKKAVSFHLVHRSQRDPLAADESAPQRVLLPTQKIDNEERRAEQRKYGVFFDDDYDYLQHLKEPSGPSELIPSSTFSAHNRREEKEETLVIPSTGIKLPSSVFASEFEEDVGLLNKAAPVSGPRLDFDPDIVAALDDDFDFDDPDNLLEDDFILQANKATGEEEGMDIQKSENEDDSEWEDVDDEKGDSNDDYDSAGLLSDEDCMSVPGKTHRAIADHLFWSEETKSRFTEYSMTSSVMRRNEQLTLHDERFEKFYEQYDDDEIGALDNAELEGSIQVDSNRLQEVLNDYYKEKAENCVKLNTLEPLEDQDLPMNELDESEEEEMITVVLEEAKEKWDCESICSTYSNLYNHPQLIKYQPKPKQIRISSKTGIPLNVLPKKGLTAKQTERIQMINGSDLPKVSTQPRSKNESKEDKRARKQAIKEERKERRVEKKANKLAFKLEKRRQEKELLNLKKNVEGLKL
UniProt Q9Y383: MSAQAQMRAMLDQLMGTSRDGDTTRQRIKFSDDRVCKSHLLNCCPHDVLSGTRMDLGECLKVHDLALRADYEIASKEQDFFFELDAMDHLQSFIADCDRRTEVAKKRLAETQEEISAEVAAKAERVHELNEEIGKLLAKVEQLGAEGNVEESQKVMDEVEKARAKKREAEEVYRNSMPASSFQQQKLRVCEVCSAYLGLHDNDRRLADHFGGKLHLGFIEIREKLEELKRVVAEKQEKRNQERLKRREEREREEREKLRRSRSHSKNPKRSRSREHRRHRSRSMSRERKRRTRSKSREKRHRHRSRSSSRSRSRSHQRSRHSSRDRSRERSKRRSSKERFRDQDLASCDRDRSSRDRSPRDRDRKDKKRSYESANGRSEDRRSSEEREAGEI
UniProt P27816: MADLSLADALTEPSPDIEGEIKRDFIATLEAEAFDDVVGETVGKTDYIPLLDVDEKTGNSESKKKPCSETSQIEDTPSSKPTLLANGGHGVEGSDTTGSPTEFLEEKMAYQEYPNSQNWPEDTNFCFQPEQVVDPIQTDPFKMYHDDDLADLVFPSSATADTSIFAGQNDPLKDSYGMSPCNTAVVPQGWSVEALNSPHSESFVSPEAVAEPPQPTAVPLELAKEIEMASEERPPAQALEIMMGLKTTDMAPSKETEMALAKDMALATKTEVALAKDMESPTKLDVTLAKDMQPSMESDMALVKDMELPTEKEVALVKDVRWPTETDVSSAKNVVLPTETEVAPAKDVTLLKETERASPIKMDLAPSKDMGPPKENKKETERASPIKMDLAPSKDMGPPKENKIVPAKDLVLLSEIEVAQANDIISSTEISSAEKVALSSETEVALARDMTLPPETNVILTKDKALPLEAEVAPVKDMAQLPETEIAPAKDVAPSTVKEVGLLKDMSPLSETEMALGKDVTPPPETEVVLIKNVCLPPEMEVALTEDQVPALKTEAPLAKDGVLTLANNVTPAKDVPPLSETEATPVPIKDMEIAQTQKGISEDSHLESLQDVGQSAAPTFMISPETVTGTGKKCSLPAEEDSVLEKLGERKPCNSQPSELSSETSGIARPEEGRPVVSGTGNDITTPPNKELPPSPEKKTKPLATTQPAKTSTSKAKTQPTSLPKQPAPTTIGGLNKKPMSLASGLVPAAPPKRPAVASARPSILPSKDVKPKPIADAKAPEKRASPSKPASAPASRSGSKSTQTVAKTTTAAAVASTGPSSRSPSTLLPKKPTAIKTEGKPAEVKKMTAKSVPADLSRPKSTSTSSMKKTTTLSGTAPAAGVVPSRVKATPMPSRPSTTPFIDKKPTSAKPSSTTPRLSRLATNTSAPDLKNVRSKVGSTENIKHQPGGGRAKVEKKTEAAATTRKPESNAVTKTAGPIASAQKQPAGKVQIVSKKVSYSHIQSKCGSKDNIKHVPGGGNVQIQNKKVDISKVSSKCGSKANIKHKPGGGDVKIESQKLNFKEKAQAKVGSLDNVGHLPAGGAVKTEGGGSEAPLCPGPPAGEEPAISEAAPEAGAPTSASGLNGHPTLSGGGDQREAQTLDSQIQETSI
UniProt Q9NU23: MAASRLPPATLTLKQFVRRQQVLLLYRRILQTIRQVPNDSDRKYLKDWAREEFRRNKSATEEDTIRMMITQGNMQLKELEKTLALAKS
UniProt Q8N5G2: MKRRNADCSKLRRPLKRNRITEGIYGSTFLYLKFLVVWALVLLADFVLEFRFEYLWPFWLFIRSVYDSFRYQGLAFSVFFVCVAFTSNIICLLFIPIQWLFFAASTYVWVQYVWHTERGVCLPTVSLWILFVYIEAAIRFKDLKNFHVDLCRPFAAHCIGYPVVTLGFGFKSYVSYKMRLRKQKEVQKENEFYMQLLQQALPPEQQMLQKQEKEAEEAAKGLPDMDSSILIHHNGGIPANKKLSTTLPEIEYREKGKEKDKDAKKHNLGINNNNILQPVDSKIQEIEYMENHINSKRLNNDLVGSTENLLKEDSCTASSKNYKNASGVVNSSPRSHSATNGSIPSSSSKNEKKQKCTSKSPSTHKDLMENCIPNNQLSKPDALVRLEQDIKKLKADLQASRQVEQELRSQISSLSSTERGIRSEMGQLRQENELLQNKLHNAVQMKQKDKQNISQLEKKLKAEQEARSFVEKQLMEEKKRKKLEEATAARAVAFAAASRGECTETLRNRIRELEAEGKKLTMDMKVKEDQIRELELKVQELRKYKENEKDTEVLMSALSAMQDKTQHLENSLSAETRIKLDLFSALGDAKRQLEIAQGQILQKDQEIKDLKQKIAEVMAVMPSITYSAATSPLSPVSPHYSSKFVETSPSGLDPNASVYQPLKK
UniProt P27448: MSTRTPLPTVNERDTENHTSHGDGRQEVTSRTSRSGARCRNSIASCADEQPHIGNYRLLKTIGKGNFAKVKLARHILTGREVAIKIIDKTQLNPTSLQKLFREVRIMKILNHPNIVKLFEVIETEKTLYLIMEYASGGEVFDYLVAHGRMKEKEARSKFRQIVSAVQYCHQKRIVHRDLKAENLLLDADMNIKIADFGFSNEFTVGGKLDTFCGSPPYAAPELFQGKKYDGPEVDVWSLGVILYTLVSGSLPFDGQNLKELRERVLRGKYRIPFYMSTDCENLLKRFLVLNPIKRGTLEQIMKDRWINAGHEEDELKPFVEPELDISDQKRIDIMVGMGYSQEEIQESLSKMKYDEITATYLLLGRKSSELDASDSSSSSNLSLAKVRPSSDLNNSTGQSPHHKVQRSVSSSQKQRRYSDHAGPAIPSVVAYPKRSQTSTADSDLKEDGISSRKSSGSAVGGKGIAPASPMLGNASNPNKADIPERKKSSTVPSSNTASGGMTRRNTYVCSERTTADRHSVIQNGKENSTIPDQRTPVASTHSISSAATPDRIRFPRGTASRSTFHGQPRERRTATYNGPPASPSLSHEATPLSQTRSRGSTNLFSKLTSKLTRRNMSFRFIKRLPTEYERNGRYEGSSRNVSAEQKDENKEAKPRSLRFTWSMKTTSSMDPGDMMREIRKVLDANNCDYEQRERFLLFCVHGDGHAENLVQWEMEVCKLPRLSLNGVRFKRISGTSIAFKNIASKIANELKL
UniProt Q7L5Y9: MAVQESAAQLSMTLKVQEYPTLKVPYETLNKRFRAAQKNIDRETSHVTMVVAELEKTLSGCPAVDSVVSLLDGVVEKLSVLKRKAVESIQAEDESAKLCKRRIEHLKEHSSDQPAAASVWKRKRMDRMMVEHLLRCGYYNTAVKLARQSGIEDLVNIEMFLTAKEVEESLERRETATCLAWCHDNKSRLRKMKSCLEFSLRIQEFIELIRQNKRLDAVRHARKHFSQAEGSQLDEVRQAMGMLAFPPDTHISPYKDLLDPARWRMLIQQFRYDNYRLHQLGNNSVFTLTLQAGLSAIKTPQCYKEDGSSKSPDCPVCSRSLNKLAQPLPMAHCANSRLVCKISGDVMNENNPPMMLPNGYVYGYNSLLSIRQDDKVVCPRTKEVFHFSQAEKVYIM
UniProt O95372: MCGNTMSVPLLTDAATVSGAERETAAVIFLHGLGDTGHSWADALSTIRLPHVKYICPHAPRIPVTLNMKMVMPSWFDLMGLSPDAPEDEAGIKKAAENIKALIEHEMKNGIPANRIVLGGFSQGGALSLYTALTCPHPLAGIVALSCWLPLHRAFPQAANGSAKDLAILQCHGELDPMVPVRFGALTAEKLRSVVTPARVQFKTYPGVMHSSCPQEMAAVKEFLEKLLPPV
UniProt P28482, whole entry, looked up: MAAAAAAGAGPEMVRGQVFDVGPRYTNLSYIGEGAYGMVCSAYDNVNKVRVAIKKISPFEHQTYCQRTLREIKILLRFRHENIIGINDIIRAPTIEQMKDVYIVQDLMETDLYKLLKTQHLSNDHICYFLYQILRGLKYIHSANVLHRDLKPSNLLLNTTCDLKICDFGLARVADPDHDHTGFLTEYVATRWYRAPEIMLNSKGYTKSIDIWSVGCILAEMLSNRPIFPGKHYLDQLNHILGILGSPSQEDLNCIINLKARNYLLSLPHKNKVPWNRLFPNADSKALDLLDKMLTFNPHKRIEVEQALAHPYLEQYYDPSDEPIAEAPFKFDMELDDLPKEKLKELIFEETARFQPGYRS

Columns and labels:
Test in all cases: log2 fold change, soluble protein after heating vs DMSO (PISA); higher = thermal stabilisation; K562 lysate, 10 uM; active = over 0.2 and 3.5 SD of the protein, either way, in both replicates (recomputed)
ibrutinib = compound: C=CC(=O)N1CCC[C@@H](n2nc(-c3ccc(Oc4ccccc4)cc3)c3c(N)ncnc32)C1 [ibrutinib]
Procedure, shortened: (§1)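 A 30 min treatment with 10 μM compound was applied to crude K562 extract at 1 mg/mL protein in PBS pH 7.4 with 1 mM MgCl2. Heating for 3 min spanned 48°C-58°C, after which aliquots were pooled, adjusted to 0.5% NP-40 at 4°C and spun at 21,000xg for 90 min. TMTpro 16plex LC-MS/MS of the supernatant, with channel sums equalised, gave values recorded as log-two fold change in thermal stability against solvent controls, from duplicates.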

[1] = compound: CC(=O)c1cnc2ccc(-c3cc(Cl)c(O)c(Cl)c3)nc2c1N[C@H]1CC[C@H](CN(C)C)CC1
Procedure, shortened: as §1

ralimetinib = compound: CC(C)(C)Cn1c(N)nc2ccc(-c3[nH]c(C(C)(C)C)nc3-c3ccc(F)cc3)nc21 [ralimetinib]
Procedure, shortened: as §1

[2] = compound: CC(C)(O)CC(=O)NCCn1ccc2ncnc(Nc3ccc(Oc4cccc(C(F)(F)F)c4)c(Cl)c3)c21
Procedure, shortened: as §1

[3] = compound: CC(C)C1=C2N=C(C=C(N2N=C1)NCC3=CC=CC=C3)NCCCCCCN
Procedure, shortened: as §1

[4] = compound: CC1=C(C(CC(=O)N1)C2=CC=C(C=C2)C(F)(F)F)C(=O)NC3=C(C=C4C(=C3)C=NN4)F
Procedure, shortened: as §1

[5] = compound: CC1=C(C2=C(C=C1)C(=O)C3=CC=CC=C3N2CCCN)C
Procedure, shortened: as §1

[6] = compound: CC1=C(C=C(C=C1)NC(=O)C2=CC(=CC=C2)C(C)(C)C#N)NC3=CC4=C(C=C3)N=CN(C4=O)C
Procedure, shortened: as §1

[7] = compound: CC1=C(C=C(C=C1)NC(=O)C2=CC(=CC=C2)N(C)C)NC(=O)C3=CC=C(C=C3)O
Procedure, shortened: as §1

[8] = compound: CC1=CC=C(C=C1)SC2=C3C=C(SC3=CN=C2)C(=O)N
Procedure, shortened: as §1

vemurafenib = compound: CCCS(=O)(=O)Nc1ccc(F)c(C(=O)c2c[nH]c3ncc(-c4ccc(Cl)cc4)cc23)c1F [vemurafenib]
Procedure, shortened: as §1

[9] = compound: CCCS(=O)(=O)Nc1ccc(F)c(C(=O)c2c[nH]c3ncc(Cl)cc23)c1F
Procedure, shortened: as §1

barasertib = compound: CCN(CCCOc1ccc2c(Nc3cc(CC(=O)Nc4cccc(F)c4)[nH]n3)ncnc2c1)CCOP(=O)(O)O [barasertib]
Procedure, shortened: as §1

[10] = compound: CC[C@@H]1C(=O)N(C)c2cnc(Nc3ccc(C(=O)NC4CCN(C)CC4)cc3OC)nc2N1C1CCCC1
Procedure, shortened: as §1

volasertib = compound: CC[C@@H]1C(=O)N(C)c2cnc(Nc3ccc(C(=O)N[C@H]4CC[C@H](N5CCN(CC6CC6)CC5)CC4)cc3OC)nc2N1C(C)C [volasertib]
Procedure, shortened: as §1

[11] = compound: CCn1c(C(=O)N(C2CC2)C2CC2)cc2c3c(ncn3C)c(Nc3cc(C)n(C)n3)nc21
Procedure, shortened: as §1

[12] = compound: CCn1cc(-c2ccnc3[nH]c(-c4cccc(CN(C)C)c4)cc23)c(-c2ccc(NC(=O)N(C)C)cc2)n1
Procedure, shortened: as §1

[13] = compound: CN1CCC(CNc2ccc3ncc(-c4cccc(OC(F)(F)F)c4)n3n2)CC1
Procedure, shortened: as §1

saracatinib = compound: CN1CCN(CCOc2cc(OC3CCOCC3)c3c(Nc4c(Cl)ccc5c4OCO5)ncnc3c2)CC1 [saracatinib]
Procedure, shortened: as §1

sotrastaurin = compound: CN1CCN(c2nc(C3=C(c4c[nH]c5ccccc45)C(=O)NC3=O)c3ccccc3n2)CC1 [sotrastaurin]
Procedure, shortened: as §1

| Target | log2 fold change (ibrutinib) | log2 fold change [1] | log2 fold change (ralimetinib) | log2 fold change [2] | log2 fold change [3] | log2 fold change [4] | log2 fold change [5] | log2 fold change [6] | log2 fold change [7] | log2 fold change [8] | log2 fold change (vemurafenib) | log2 fold change [9] | log2 fold change (barasertib) | log2 fold change [10] | log2 fold change (volasertib) | log2 fold change [11] | log2 fold change [12] | log2 fold change [13] | log2 fold change (saracatinib) | log2 fold change (sotrastaurin) |
| --- | --- | --- | --- | --- | --- | --- | --- | --- | --- | --- | --- | --- | --- | --- | --- | --- | --- | --- | --- | --- |
| MAGEC1 (UniProt O60732) | inactive: -0.009 | inactive: 0.018 | inactive: 0.016 | inactive: 0.016 | inactive: 0.006 | inactive: 0.008 | inactive: -0.014 | inactive: 0 | inactive: 0.011 | inactive: 0.037 | inactive: 0.036 | inactive: 0.045 | inactive: 0.062 | inactive: 0 | inactive: -0.03 | inactive: -0.014 | inactive: -0.008 | inactive: -0.055 | inactive: 0.02 | inactive: -0.007 |
| MAT2B (UniProt Q9NZL9) | inactive: 0 | inactive: -0.008 | inactive: -0.005 | inactive: -0.006 | inactive: -0.002 | inactive: -0.023 | inactive: 0.016 | inactive: 0.015 | inactive: -0.013 | inactive: -0.005 | inactive: 0.036 | inactive: 0.016 | inactive: 0.001 | inactive: -0.019 | inactive: -0.006 | inactive: -0.015 | inactive: 0.13 | inactive: 0 | inactive: -0.018 | inactive: 0.013 |
| MAP2K3 isoform 3 (UniProt P46734) | inactive: -0.041 | inactive: 0.095 | inactive: 0.012 | inactive: -0.008 | inactive: -0.15 | inactive: 0.019 | inactive: -0.095 | inactive: 0.021 | inactive: 0.123 | inactive: 0.114 | inactive: 0.065 | inactive: -0.042 | inactive: 0.032 | inactive: -0.125 | inactive: 0.07 | inactive: -0.063 | inactive: 0.191 | inactive: 0.04 | inactive: 0.113 | inactive: -0.008 |
| LYZ (UniProt P61626) | inactive: -0.033 | inactive: 0.233 | inactive: -0.034 | inactive: 0.151 | inactive: 1.83 | inactive: 2.03 | inactive: 0.122 | inactive: 0.23 | inactive: -0.318 | inactive: -0.401 | inactive: 0.104 | inactive: 0.629 | inactive: 0.412 | inactive: 0 | inactive: -0.075 | inactive: -0.321 | inactive: 0.692 | inactive: -0.774 | inactive: -0.084 | inactive: -0.254 |
| LTV1 (UniProt Q96GA3) | inactive: 0.001 | inactive: -0.004 | inactive: -0.005 | inactive: 0.016 | inactive: 0.024 | inactive: 0.008 | inactive: -0.068 | inactive: -0.001 | inactive: -0.001 | inactive: 0.029 | inactive: 0.018 | inactive: 0.019 | inactive: -0.01 | inactive: 0.004 | inactive: -0.031 | inactive: -0.012 | inactive: 0.028 | inactive: -0.07 | inactive: 0.014 | inactive: -0.001 |
| LUC7L2 (UniProt Q9Y383) | inactive: -0.013 | inactive: 0.013 | inactive: 0.014 | inactive: 0.004 | inactive: 0.018 | inactive: -0.029 | inactive: 0.009 | inactive: 0.01 | inactive: -0.013 | inactive: 0.023 | inactive: -0.02 | inactive: -0.011 | inactive: -0.013 | inactive: -0.042 | inactive: 0.032 | inactive: 0.004 | inactive: 0.147 | inactive: -0.013 | inactive: -0.009 | inactive: -0.052 |
| MAP4 (UniProt P27816) | inactive: 0.002 | inactive: -0.005 | inactive: -0.016 | inactive: -0.002 | inactive: 0.016 | inactive: -0.023 | inactive: -0.016 | inactive: 0.006 | inactive: -0.001 | inactive: -0.008 | inactive: 0.01 | inactive: -0.017 | inactive: -0.016 | inactive: 0.064 | inactive: 0.033 | inactive: -0.022 | inactive: -0.042 | inactive: 0.036 | inactive: -0.009 | inactive: -0.027 |
| LUZP1 (UniProt Q86V48) | inactive: 0.002 | inactive: -0.002 | inactive: 0.003 | inactive: -0.012 | inactive: 0.016 | inactive: -0.006 | inactive: 0.012 | inactive: 0.011 | inactive: -0.002 | inactive: 0.017 | inactive: 0.037 | inactive: 0.003 | inactive: 0.013 | inactive: 0.086 | inactive: -0.015 | inactive: 0.012 | inactive: 0.108 | inactive: 0.014 | inactive: -0.024 | inactive: -0.01 |
| MACF1 (UniProt H3BQK9) | inactive: 0.001 | inactive: 0.02 | inactive: 0.003 | inactive: -0.004 | inactive: 0.022 | inactive: 0.012 | inactive: -0.051 | inactive: 0.008 | inactive: 0.016 | inactive: -0.007 | inactive: -0.006 | inactive: 0.025 | inactive: 0.033 | inactive: -0.039 | inactive: -0.079 | inactive: -0.009 | inactive: 0.026 | inactive: -0.034 | inactive: 0.042 | inactive: 0.021 |
| LYRM2 (UniProt Q9NU23) | inactive: 0.019 | inactive: -0.018 | inactive: -0.022 | inactive: -0.041 | inactive: -0.036 | inactive: -0.082 | inactive: -0.05 | inactive: -0.026 | inactive: -0.023 | inactive: -0.024 | inactive: 0.01 | inactive: 0.007 | inactive: 0.04 | inactive: 0.036 | inactive: 0.029 | inactive: -0.005 | inactive: -0.083 | inactive: -0.022 | inactive: 0.006 | inactive: 0.118 |
| MACO1 (UniProt Q8N5G2) | inactive: 0 | inactive: 0.043 | inactive: -0.003 | inactive: -0.04 | inactive: 0.01 | inactive: 0.018 | inactive: -0.043 | inactive: -0.023 | inactive: -0.002 | inactive: 0.095 | inactive: -0.114 | inactive: -0.003 | inactive: -0.063 | active: 0.296 | inactive: -0.009 | inactive: 0.025 | inactive: 0.113 | inactive: -0.037 | inactive: 0.064 | inactive: -0.01 |
| MARK2 (UniProt E9PC69) | inactive: 0.139 | inactive: -0.053 | inactive: 0.014 | inactive: -0.004 | inactive: 0.015 | inactive: -0.012 | inactive: -0.063 | inactive: 0.024 | inactive: 0.045 | inactive: 0.012 | inactive: 0.015 | inactive: -0.005 | inactive: 0.027 | inactive: 0 | inactive: 0.028 | inactive: -0.015 | inactive: -0.013 | inactive: -0.22 | inactive: 0.021 | inactive: -0.026 |
| MARK3 (UniProt P27448) | inactive: 0.03 | inactive: -0.081 | inactive: 0.028 | inactive: -0.016 | inactive: 0.041 | inactive: 0.005 | inactive: -0.009 | inactive: 0.075 | inactive: 0.016 | inactive: 0 | inactive: -0.003 | inactive: 0.036 | inactive: -0.001 | inactive: 0.038 | inactive: 0.042 | inactive: 0.005 | inactive: -0.114 | inactive: -0.237 | inactive: -0.015 | inactive: -0.228 |
| MAEA (UniProt Q7L5Y9) | inactive: 0.037 | inactive: -0.018 | inactive: 0.028 | inactive: 0.028 | inactive: -0.02 | inactive: 0.01 | inactive: -0.01 | inactive: 0.022 | inactive: 0.01 | inactive: 0 | inactive: -0.052 | inactive: 0.007 | inactive: 0.033 | inactive: -0.055 | inactive: -0.029 | inactive: 0.024 | inactive: 0.04 | inactive: 0.02 | inactive: -0.016 | inactive: -0.004 |
| LYPLA2 (UniProt O95372) | inactive: -0.007 | inactive: -0.078 | inactive: 0.014 | inactive: 0.003 | inactive: 0.04 | inactive: -0.086 | inactive: 0.022 | inactive: 0.017 | inactive: 0.002 | inactive: 0.08 | inactive: -0.034 | inactive: -0.017 | inactive: 0.087 | inactive: -0.113 | inactive: 0.022 | inactive: 0.063 | inactive: -0.029 | inactive: -0.117 | inactive: 0.013 | inactive: -0.083 |
| MAPK1 (UniProt P28482) | inactive: 0.001 | inactive: 0 | inactive: -0.066 | inactive: 0.012 | inactive: -0.029 | inactive: -0.022 | inactive: 0.023 | inactive: -0.039 | inactive: -0.03 | inactive: 0.003 | inactive: -0.022 | inactive: -0.072 | inactive: -0.015 | inactive: -0.013 | inactive: -0.009 | inactive: 0.004 | inactive: 0.004 | inactive: -0.023 | inactive: 0.002 | inactive: -0.007 |

Copied from the list:
Value for MAP2K3 isoform 3 (UniProt P46734) under log2 fold change [6]: inactive: 0.021
Value for MARK2 (UniProt E9PC69) under log2 fold change [13]: inactive: -0.22
